Test results reported in the supplement of paper PMC4749390.
Where a name gives a salt, the structure may show the parent alone. Some of the results follow. This data set is noisy: repeats of one test often differ as much as different tests do.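 Wild-type human LRH-1, a heavily sumoylated nuclear receptor, is tetracycline-inducible in stable JEG3 cells. RT-qPCR measured SUMO-sensitive APOC3 and MUC1 transcripts, which rise with SUMO-less LRH-1 or UBC9 knockdown, versus TBP and DMSO controls. Robust Z-scores beyond ±2 flagged primary hits, followed by toxicity and TBP filtering.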

What follows are compounds tested on JEG3 expressing hLRH-1 (assay: MUC1 transcript change (ddCt vs TBP and DMSO), Z-score over library; higher = higher MUC1 expression). Settings: 10 µM; time (hr): 24.

Going from `CC(=O)NS(=O)(=O)c1ccc(NC(=O)c2ccccc2C(=O)O)cc1` [phthalylsulfacetamide] to `Nc1ccc(S(=O)(=O)Nc2cnc3ccccc3n2)cc1` [sulfaquinoxaline sodium], the “MUC1 transcript change (Z-score)” value falls from 0.938 to 0.1.

First: CCN(CC)C(C)CN1c2ccccc2Sc2ccccc21 (centres undefined) [ethopropazine hydrochloride]
Second: CN(C)CCCN1c2ccccc2CCc2ccc(Cl)cc21 [Clomipramine hydrochloride]
The “MUC1 transcript change (Z-score)” value of the first is higher: -0.0192 for the first, -0.489 for the second.

First: C[N+](C)(C)CCO [choline chloride]
Second: C[N+](C)(C)C[C@H](O)CC(=O)O [levocarnitine]
The “MUC1 transcript change (Z-score)” value of the first is lower: 0.355 for the first, 1.29 for the second.

First: Oc1c(I)cc(Cl)c2cccnc12 [clioquinol]
Second: CN(C)CC[C@@H](c1ccc(Cl)cc1)c1ccccn1 [dexchlorpheniramine maleate]
The “MUC1 transcript change (Z-score)” value of the first is lower: 0.422 for the first, 0.774 for the second.

First: NC[C@H]1O[C@H](O[C@H]2[C@H](O)[C@@H](O[C@H]3O[C@H](CO)[C@@H](O)[C@H](N)[C@H]3O)[C@H](N)C[C@@H]2N)[C@H](N)[C@@H](O)[C@@H]1O [becanamycin sulfate]
Second: NC[C@@H]1O[C@H](O[C@H]2[C@@H](O)[C@H](O[C@@H]3[C@@H](O)[C@H](N)C[C@H](N)[C@H]3O[C@H]3O[C@H](CO)[C@@H](O)[C@H](O)[C@H]3N)O[C@@H]2CO)[C@H](N)[C@@H](O)[C@@H]1O [paromomycin sulfate]
The “MUC1 transcript change (Z-score)” value of the first is lower: 0.49 for the first, 0.909 for the second.

First: C#C[C@]1(O)CCC2C3CCC4=CC(=O)CC[C@@H]4C3CCC21CC (some centres undefined) [norgestrel]
Second: CC(=O)O[C@]1(C(C)=O)CCC2C3C=C(C)C4=CC(=O)CCC4(C)C3CCC21C (some centres undefined) [megestrol acetate]
The “MUC1 transcript change (Z-score)” value of the first is higher: -0.382 for the first, -0.392 for the second.

Compared with `Cc1cc(CC(C)CC(C)(C)C)n(O)c(=O)c1.NCCO` (centres undefined) [piroctone olamine], `CC(C)(CO)C(O)C(=O)NCCCO` (stereo not drawn) [panthenol (dl)] is lower in “MUC1 transcript change (Z-score)” value: 2.48 for the first, 0.503 for the second.

First: OC[C@H]1O[C@H](O[C@]2(CCl)O[C@H](CCl)[C@@H](O)[C@@H]2O)[C@H](O)[C@@H](O)[C@H]1Cl [sucralose]
Second: CN(N=O)C(=O)N[C@@H]1[C@@H](O)[C@H](O)[C@@H](CO)O[C@@H]1O [streptozosin]
The “MUC1 transcript change (Z-score)” value of the first is lower: 0.0596 for the first, 0.676 for the second.

First: C=Cc1c(C)c2[n]3c1C=C1C(C)=C(CC)C4=[N+]1[Cu]31[n]3c(c(C)c(C(=O)O)c3=C(CC(=O)O)C3=[N+]1C(=C2)C(C)C3CCC(=O)O)=C4 (centres undefined) [chlorophyllide cu complex na salt]
Second: CO[C@@H]1[C@@H](OC(N)=O)[C@@H](O)[C@H](Oc2ccc3c(O)c(NC(=O)c4ccc(O)c(CC=C(C)C)c4)c(=O)oc3c2C)OC1(C)C [novobiocin sodium]
The “MUC1 transcript change (Z-score)” value of the first is higher: 0.679 for the first, 0.144 for the second.

Going from `Nc1nc2ccc(OC(F)(F)F)cc2s1` [Riluzole] to `O=C(O)c1ccccc1Nc1cccc(C(F)(F)F)c1` [flufenamic acid], the “MUC1 transcript change (Z-score)” value falls from 0.179 to -0.742.

Going from `CN(C)N=Nc1[nH]cnc1C(N)=O` [dacarbazine] to `Cc1cnc(C(=O)O)c[n+]1[O-]` [acipimox], the “MUC1 transcript change (Z-score)” value rises from -0.156 to 0.543.

Going from `Clc1ccc(CCC(Cn2ccnc2)Sc2c(Cl)cccc2Cl)cc1` (centres undefined) [butoconazole] to `CCN(CCCCOC(=O)c1ccc(OC)c(OC)c1)C(C)Cc1ccc(OC)cc1` (centres undefined) [mebeverine hydrochloride], the “MUC1 transcript change (Z-score)” value falls from 1.13 to 0.0222.

Compared with `Cc1ccc(-c2cc(C(F)(F)F)nn2-c2ccc(S(N)(=O)=O)cc2)cc1` [celecoxib], `OCCN1CCN(CCCN2c3ccccc3Sc3ccc(C(F)(F)F)cc32)CC1` [Fluphenazine dihydrochloride] is lower in “MUC1 transcript change (Z-score)” value: 0.329 for the first, -0.303 for the second.

Going from `C[C@H]1OC(n2cc(F)c(=O)[nH]c2=O)C(O)[C@@H]1O` (some centres undefined) [5-fluoro-5'-deoxyuridine] to `CCn1cc(C(=O)O)c(=O)c2cc(F)c(N3CCNCC3)cc21` [norfloxacin], the “MUC1 transcript change (Z-score)” value falls from 0.632 to -0.295.

Going from `COc1ccc2c(c1OC)C(=O)O[C@@H]2[C@H]1c2c(cc3c(c2OC)OCO3)CCN1C` [noscapine hydrochloride] to `COc1cc(C(=O)NCc2ccc(OCCN(C)C)cc2)cc(OC)c1OC` [trimethobenzamide hydrochloride], the “MUC1 transcript change (Z-score)” value falls from 0.797 to 0.53.

First: CCOC(=O)O[C@]1(C(=O)COC(=O)CC)CC[C@H]2[C@@H]3CCC4=CC(=O)C=C[C@]4(C)[C@H]3[C@@H](O)C[C@@]21C [prednicarbate]
Second: C[C@@H]1CC2C3CCC4=CC(=O)C=C[C@]4(C)[C@@]3(F)[C@@H](O)C[C@]2(C)[C@@]1(O)C(=O)CO (some centres undefined) [dexamethasone]
The “MUC1 transcript change (Z-score)” value of the first is lower: -0.685 for the first, -0.615 for the second.

Going from `CNNCc1ccc(C(=O)NC(C)C)cc1` [procarbazine hydrochloride] to `CC(C)NCC(O)COc1ccc(CCOCC2CC2)cc1` (centres undefined) [betaxalol hydrochloride], the “MUC1 transcript change (Z-score)” value rises from -0.819 to 0.344.

Compared with `CC(=O)O[C@H]1CC2CCC3C(CC[C@@]4(C)C3C[C@H]([N+]3(C)CCCCC3)[C@@H]4OC(C)=O)[C@@]2(C)C[C@@H]1N1CCCCC1` (some centres undefined) [vecuronium bromide], `C[C@H]1O[C@@H](O[C@H]2[C@@H](O)C[C@H](O[C@H]3[C@@H](O)C[C@H](O[C@H]4CC[C@@]5(C)[C@H](CC[C@@H]6[C@@H]5C[C@@H](O)[C@]5(C)[C@@H](C7=CC(=O)OC7)CC[C@]65O)C4)O[C@@H]3C)O[C@@H]2C)C[C@H](O)[C@@H]1O` [digoxin] is lower in “MUC1 transcript change (Z-score)” value: 0.207 for the first, -2.03 for the second.

First: CO/N=C(\C(=O)N[C@@H]1C(=O)N2C(C(=O)O)=C(CSc3nnnn3C)CS[C@H]12)c1csc(N)n1 [cefmenoxime hydrochloride]
Second: CO/N=C(/C(=O)N[C@@H]1C(=O)N2C(C(=O)O)=C(CSc3nc(=O)c(O)nn3C)CS[C@H]12)c1csc(N)n1 [ceftriaxone sodium trihydrate]
The “MUC1 transcript change (Z-score)” value of the first is higher: -0.0117 for the first, -0.373 for the second.

First: NCCCC[C@H](N[C@@H](CCc1ccccc1)C(=O)O)C(=O)N1CCC[C@H]1C(=O)O [lisinopril]
Second: CC1C(OC(=O)C(O)c2ccccc2)CCC(C)(C)N1C (centres undefined) [eucatropine hydrochloride]
The “MUC1 transcript change (Z-score)” value of the first is lower: -0.187 for the first, 1.28 for the second.

First: CC1=C(C(=O)O)N2C(=O)[C@@H](NC(=O)[C@H](N)C3=CCC=CC3)C2SC1 (some centres undefined) [cephradine]
Second: CCCCN1CCCCC1C(=O)Nc1c(C)cccc1C (centres undefined) [bupivacaine hydrochloride]
The “MUC1 transcript change (Z-score)” value of the first is lower: -1.24 for the first, 0.223 for the second.

Compared with `CC[C@]1(O)C[C@H]2CN(CCc3c([nH]c4ccccc34)[C@@](C(=O)OC)(c3cc4c(cc3OC)N(C=O)[C@H]3[C@@](O)(C(=O)OC)[C@H](OC(C)=O)[C@]5(CC)C=CCN6CC[C@]43[C@@H]65)C2)C1` [vincristine sulfate], `COc1ccccc1N1CCN(CCCNc2cc(=O)n(C)c(=O)n2C)CC1` [Urapidil hydrochloride] is higher in “MUC1 transcript change (Z-score)” value: -1.01 for the first, -0.777 for the second.

Compared with `COc1ccccc1OCC(O)CO` (centres undefined) [guaifenesin], `N=C(N)N1CCc2ccccc2C1` [Debrisoquin sulfate] is higher in “MUC1 transcript change (Z-score)” value: -0.785 for the first, 0.452 for the second.

Compared with `CC/C(=C(/CC)c1ccc(O)cc1)c1ccc(O)cc1` [diethylstilbestrol], `O=C(N/N=C/c1ccc([N+](=O)[O-])o1)c1ccc(O)cc1` [nifuroxazide] is lower in “MUC1 transcript change (Z-score)” value: 0.918 for the first, -0.347 for the second.

Compared with `Cc1cc(C(C)(C)C)c(O)c(C)c1CC1=NCCN1` [Oxymetazoline hydrochloride], `C[C@](N)(Cc1ccc(O)c(O)c1)C(=O)O` [L-alpha-Methyl DOPA] is higher in “MUC1 transcript change (Z-score)” value: 0.325 for the first, 0.991 for the second.

Going from `O=C(N[C@H](CO)[C@H](O)c1ccc([N+](=O)[O-])cc1)C(Cl)Cl` [chloramphenicol] to `COc1ccc2cc([C@H](C)C(=O)O)ccc2c1` [(+)naproxen], the “MUC1 transcript change (Z-score)” value rises from -0.84 to 0.303.

First: CN(C(=O)CN(CCO)CC(=O)N(C)C(C)(C)Cc1ccccc1)C(C)(C)Cc1ccccc1 [oxethazaine]
Second: CCN(CC)CCc1nc(-c2ccccc2)no1 [oxolamine citrate]
The “MUC1 transcript change (Z-score)” value of the first is higher: 0.249 for the first, -1.25 for the second.

Going from `CCC[C@@H]1C[C@@H](C(=O)N[C@@H]([C@H]2O[C@H](SC)[C@H](O)[C@@H](O)[C@H]2O)[C@H](C)Cl)N(C)C1` [clindamycin hydrochloride] to `CC[C@H](C)C(=O)O[C@H]1C[C@@H](C)C=C2C=C[C@H](C)[C@H](CC[C@@H]3C[C@@H](O)CC(=O)O3)[C@H]21` [lovastatin], the “MUC1 transcript change (Z-score)” value rises from -0.534 to 0.753.

First: CCN(CC)CCNC(=O)c1cc(Cl)c(N)cc1OC [Metoclopramide hydrochloride]
Second: O=C(NCC(O)CO)c1c(I)c(C(=O)NCC(O)CO)c(I)c(N(CCO)C(=O)CO)c1I (centres undefined) [ioversol]
The “MUC1 transcript change (Z-score)” value of the first is higher: 0.813 for the first, 0.695 for the second.

Compared with `Cc1cccc(C)c1OCC(C)N` (centres undefined) [mexiletine hydrochloride], `COc1ccc(O)cc1` [mequinol] is lower in “MUC1 transcript change (Z-score)” value: 1.41 for the first, 0.479 for the second.

Going from `C[C@@H]1CC2C3C[C@H](F)C4=CC(=O)C=C[C@]4(C)[C@@]3(F)[C@@H](O)C[C@]2(C)[C@@]1(O)C(=O)CO` (some centres undefined) [flumethasone] to `CC(=O)[C@@]1(O)CC[C@H]2[C@@H]3C[C@H](C)C4=CC(=O)C=C[C@]4(C)[C@@]3(F)[C@@H](O)C[C@@]21C` [fluorometholone], the “MUC1 transcript change (Z-score)” value rises from -1.17 to -0.368.

Compared with `NCCCC(=O)O`, `CCCCCCCCCCCCCCCCCCCCCCO` [docosanol] is lower in “MUC1 transcript change (Z-score)” value: 0.342 for the first, -2.42 for the second.

Compared with `Cc1cc2c(s1)Nc1ccccc1N=C2N1CCN(C)CC1` [olanzapine], `O=C(c1cccnc1)N1CCOCC1` [nicopholine] is lower in “MUC1 transcript change (Z-score)” value: -0.203 for the first, -0.672 for the second.

Going from `O=S(=O)(O)NC1CCCCC1` [cyclamic acid] to `C[C@@H]1CC[C@H]2[C@@H](C)C(O)O[C@@H]3O[C@@]4(C)CC[C@@H]1[C@]32OO4` (some centres undefined) [artenimol], the “MUC1 transcript change (Z-score)” value rises from -0.656 to -0.0586.

`CC1(C)O[C@@H]2CC3C4C[C@H](F)C5=CC(=O)CC[C@]5(C)C4[C@@H](O)C[C@]3(C)[C@]2(C(=O)CO)O1` (some centres undefined) [flurandrenolide] was tested, and the “MUC1 transcript change (Z-score)” value was -1.38.
